Data taken from ChEMBL document CHEMBL3988442, “University of Dundee, Small-Polar-MMV Screening Library” (2021).

Amino acid sequences for entries named in this document (tags omitted).
UniProt P9WNZ1, whole entry: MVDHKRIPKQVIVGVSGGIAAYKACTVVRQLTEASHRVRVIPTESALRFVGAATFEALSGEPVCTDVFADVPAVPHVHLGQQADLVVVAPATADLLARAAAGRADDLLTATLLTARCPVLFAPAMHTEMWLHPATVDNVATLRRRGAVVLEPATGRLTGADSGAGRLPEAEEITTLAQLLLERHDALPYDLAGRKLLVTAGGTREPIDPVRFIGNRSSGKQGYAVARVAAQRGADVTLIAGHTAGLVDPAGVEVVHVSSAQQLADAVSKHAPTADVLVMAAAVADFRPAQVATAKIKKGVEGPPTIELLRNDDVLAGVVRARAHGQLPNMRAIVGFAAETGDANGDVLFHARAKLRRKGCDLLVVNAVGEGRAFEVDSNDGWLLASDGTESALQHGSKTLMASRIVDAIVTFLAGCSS

CoaBC: 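Enzyme assay of CoaBC with a phosphate dye (Biomol Green) read at 650 nm. Target: Coenzyme A biosynthesis protein CoaBC, Mycobacterium tuberculosis (UniProt P9WNZ1). Concentration: 30 µM. Direction is inferred from only a few compounds that gave an IC50; most scored high, so higher reads as stronger inhibition. Most strong results did not repeat in a second test. About 67,000 compounds were tested under these conditions; 0.06% (about 40) showed 50% or more at least once.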
Leishmania in macrophages: 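Cell assay of Leishmania donovani living inside macrophages; the read-out is not stated. Tested at 30 µM. Direction is inferred from retests: higher values go with stronger inhibition. Of about 69,000 compounds tested this way, about 1,000 (1.5%) reached 50% or more in at least one test.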

Results are given as percent effect. The record does not define 0% and 100%; most values in the screen are far below 50% and negative numbers occur (in some assays of this library far below -100). Compounds were drawn at random from those tested, without regard to their results. Two or more numbers in one place are separate tests of the same structure; such repeats can differ widely. A dash means the value is not listed here; it may have been measured.

compound | CoaBC | Leishmania in macrophages
COc1ccc(CNC(=O)NC2CCN(CC3CCCC3)CC2)cn1 | 3.478 | 13.36
CN1CCN(C(=O)C2CCCc3[nH]ncc32)CC1 (centres undefined) | 3.748 | -6.963
Fc1ccc(CN2CCCN(Cc3cscn3)CC2)cc1 | 0 | 21.99
CN1CC2(CCCN(Cc3nnc(-c4cccc(F)c4)o3)C2)OC1=O (centres undefined) | -0.1233 | 17.18
CCN(CC)c1ccc(C(=O)NCc2cccnc2-n2cncn2)cn1 | 1.322 | 20.49
C=C(Br)CN(C)C1CCN(CCc2ccccn2)CC1 | 4.082 | 21.55
Cc1nc(CN2CC[C@H]3[C@@H]2CCC(=O)N3c2cnn(C)c2)cs1 | -3.576 | -
O=C(Cc1ccsc1)N1CCn2cc(Cn3cncn3)nc2C1 | 0.2179 | 11.95
Cc1cc(C)c(CNC(=O)NCc2ccncc2)c(=O)[nH]1 | 4.337 | -9.866
CCn1cnnc1C1CCN(C(=O)c2ccoc2C)CC1 | 5.806 | -28.57
Cc1cccc(COC[C@@H]2CC[C@H]3[C@H](CCN3Cc3ccco3)O2)n1 | 6.237 | -
O=C(O)C(F)(F)F.c1ccc(CCNCC2Cn3nncc3CO2)cc1 (centres undefined) | - | -1.764
CNC(=O)c1sc2ccccc2c1CC1CCCN1Cc1cnc(C)s1 (centres undefined) | -0.5256 | 44.26
CC(c1ccco1)N(C)Cc1cc2cc3c(cc2[nH]c1=O)OCO3 (centres undefined) | 5.844 | -5.094
O=C(O)C1CCN(C(=O)CCn2ccc3cc(Br)ccc32)CC1 | 1.01 | 5.686
Cn1ccnc1CN1C[C@@H](CN2CCCCC2)[C@@H](CO)C1 | -6.947 | 27.13
NC(=O)[C@H]1CCCN(c2nccc(-c3ccncc3)n2)C1 | 1.807 | -18.98 & 16.78
Cc1noc(C)c1CNC(=O)c1cn(CCC2CCCCN2)nn1 (centres undefined) | 4.925 | 12.08
Cc1cnn(CC2CCCN2CC(=O)Nc2cc(C)on2)c1 (centres undefined) | -1.877 | 19.7
N#Cc1cccc(CN2C[C@@H]3CN(c4ncccn4)C[C@@H]3C2)c1 | -1.733 | -
[H][C@]12CC[C@@]3(N=C(CC)NC3=O)[C@@]1([H])CN(C(=O)NCc1cccc(F)c1)C2 | - | 4.483
CCc1nnsc1C(=O)N1CCN(CC(O)C(C)(C)C)CC1 (centres undefined) | 1.222 | 2.336
O=C(C1CN(CC2CC2)CC12CCOCC2)N1CCOCC1 (centres undefined) | -3.074 | -
O=C(NCc1noc(C2CCCO2)n1)c1cn2ccsc2n1 (centres undefined) | 4.545 | 0.6303
Cc1cccc(N2CCN(C(=O)Nc3cnn(CC(N)=O)c3)CC2)c1 | 2.591 | 19.21
Cc1cc(CC(=O)NC2CCCN(c3ccccc3F)C2=O)n[nH]1 (centres undefined) | 1.38 | -21.53
Cc1nn(C)c(C)c1OCC(=O)N1CCCCC1 | - | 7.822
COCCCNC(=O)N1CCN(C(=O)c2nsc3ccc(C)cc23)CC1 | 1.772 | -5.335 & 41.85
[H][C@@]12COC[C@@H](C(=O)NC)[C@]1([H])CN(C(=O)c1ccc(OC)cc1)C2 | - | 6.474 & 5.853
O=C(c1cscn1)N1CCC2(CC1)CN(c1ccccn1)CCO2 | 5.477 | 5.632
O=C1NC[C@H]2CN(Cc3ccccn3)CCN12 | 4.839 | -
CCC(Nc1nnnn1-c1ccccc1)C(=O)NC1CCSCC1 (centres undefined) | -6.303 | 22.78
N#Cc1cccnc1N1CCCN(C(=O)CCc2nccs2)CC1 | 10 | 15.67
O=C1CCC(=O)N1c1nn(Cc2ccc(F)cc2)cc1Cl | -4.54 | 19.47
COc1ccc(-c2ccc(C(=O)NS(C)(=O)=O)c(F)c2)c(F)c1 | -6.863 | 15.34
CNC(=O)[C@@]12CCO[C@@H]1CCN(Cc1ccc3c(c1)OCO3)C2 | 1.707 | -
CN1CCN([C@H]2CCN(C(=O)c3nn(C)cc3Cl)C[C@H]2CCCO)CC1 | 8.285 | 11.42
CC(O)CN1CCc2onc(-c3ccccc3F)c2C1 (centres undefined) | 3.671 | 43.53
CCN1CC[C@@]2(C(=O)N(C)C)CCN(S(=O)(=O)c3ccccc3)CC[C@@H]12 | 6.107 | -
CC(C)CN1CCC2(CCN(C(=O)c3ccc(F)cc3)CC2)C1=O | -1.693 | 41.88
Cc1ccc(OCC(=O)NCC(C)C)nc1 | 13.55 | 14.78
CC(C)N1CCC2(CC1)CC(=O)N(Cc1cc(F)cc(F)c1)C2 | -0.1203 | 36.13
O=C(c1ccncc1)N1CCC2(CC1)CCN(Cc1ccccn1)C2=O | 4.034 | -
Cc1nc(N2CCCC2)nc2c1CCN(C(=O)C1CCCCC1)CC2 | 6.015 | -2.542
O=C(O)CSc1nnc(-c2cn[nH]c2)n1-c1ccccc1C(F)(F)F | 0.5115 | 0.6589
COc1ccc(CC(=O)N2CCN(C)c3ncccc3C2)cc1.O=C(O)C(F)(F)F | - | -9.539
Cn1ccnc1C(NCc1ccccc1)c1ccc(F)cc1 (centres undefined) | 4.11 | 25.22
CC(=O)N[C@@H]1CN(C2CCN(c3cccc(Cl)c3)CC2)C[C@H]1C(C)C | -3.629 | 15.57
[H][C@@]12C[C@H](C(=O)Nc3cccnc3)[C@@]([H])(CN(Cc3ccc(C)cc3)C1)O2 | - | 35.7
CCS(=O)(=O)NCCCn1ncc2c(C)cccc21 | -3.233 | 15.38
Cc1cc(C)n(C2CN(CC(O)c3ccc4c(c3)OCO4)C2)n1 (centres undefined) | 2.169 | 37.54
O=C(O)C(F)(F)F.[H][C@]12CCC[C@@H](CNc3nccn3C)[C@@]1([H])CN(CC1CC1)C2 | - | 19.87
O=C(COc1ccc2c(c1)CCC2)NS(=O)(=O)c1cccnc1 | 6.138 | 15.33
CC(C)NC(=O)C1(Cc2ccccc2-c2ccccc2)CCCNC1 (centres undefined) | 10.17 | 40.16
COc1ccc(F)cc1CN(CC(N)=O)C(C)C | 0.3822 | 0.1917
COc1ccc(N2CCN(C(=O)CCc3n[nH]c(C)n3)CC2=O)cc1 | 2.512 | -0.4675
COCC1CN(S(=O)(=O)N(C)C)Cc2cnn(CC3CCCC3)c21.O=C(O)C(F)(F)F (centres undefined) | - | -10.54
CN1CCN2CCN(C(=O)c3cc4ncc(CCO)cn4n3)CC2C1 (centres undefined) | 0.9677 | 20.13
CCN(Cc1ccccc1)S(=O)(=O)C1CCS(=O)(=O)CC1 | -0.1122 | 5.329
O=C(NCc1ccccn1)[C@]12COC[C@H]1CN(C1CCC1)C2 | 0.8883 | -
CCCC(C)(C)NC(=O)c1cnc(C)s1 | -1.138 | 16.08
C[C@@H]1CN(C2CCCCC2)CC[C@@]1(O)C1CCOCC1 | 0.3645 | -0.4391
CCc1nc(NC(=O)Cc2csc(-c3nnc[nH]3)n2)sc1C | 10.46 | 23.4
COCCN(C)C[C@@H]1CN(c2cc(C)nc3ccccc23)C[C@@H]1CO | 9.159 | -65.84
CC(=O)N1CCN([C@@H]2CN(C(=O)c3ccccc3)C[C@H]2O)CC1 | 8.159 | -15.8
[H][C@@]12CNC[C@]1([H])[C@H]2C(=O)N1CCN(c2ccc(OC)cc2)C(C)(C)C1 | - | -11.16
O=C(c1ccncn1)N1CCC[C@]2(C[C@@H](OCC3CC3)CO2)C1 | 1.25 | 37.6
Cc1cc(C(=O)N2CCCCC2)ccc1NS(C)(=O)=O | 1.568 | 25.76
Cc1noc(C)c1-c1cccc(C2CCCNC2)n1 (centres undefined) | 0.618 | 11.57
Cc1noc(C(C)N2CCN(CCC(=O)N3CCOCC3)CC2)n1 (centres undefined) | 3.008 | 34.7
Cn1cnc2c1CCN(CC(=O)N(Cc1ccccc1F)C1CC1)C2 | -11.22 | 11.39
Cc1cc(C(=O)N2CCC(n3nc(C)cc3C)C2)c2ccc(F)cc2n1 (centres undefined) | 2.284 | 18.11
COC(=O)C(O)C1CCN(CCc2ccccn2)CC1 (centres undefined) | 6.646 | 3.398
O=C(CCCOc1ccccc1Cl)N1CCCC(n2cncn2)C1 (centres undefined) | 2.591 | -4.718

7 of the entries, repeated:

compound	CoaBC	Leishmania in macrophages
O=C(NCc1ccccn1)[C@]12COC[C@H]1CN(C1CCC1)C2	0.8883	-
COc1ccc(CNC(=O)NC2CCN(CC3CCCC3)CC2)cn1	3.478	13.36
Cc1cc(C)n(C2CN(CC(O)c3ccc4c(c3)OCO4)C2)n1 (centres undefined)	2.169	37.54
Cc1cc(C(=O)N2CCC(n3nc(C)cc3C)C2)c2ccc(F)cc2n1 (centres undefined)	2.284	18.11
N#Cc1cccnc1N1CCCN(C(=O)CCc2nccs2)CC1	10	15.67
COC(=O)C(O)C1CCN(CCc2ccccn2)CC1 (centres undefined)	6.646	3.398
NC(=O)[C@H]1CCCN(c2nccc(-c3ccncc3)n2)C1	1.807	-18.98 & 16.78